Experimental data as given in US10070648B2, “Photodynamic insecticides” (ROSALIND FRANKLIN UNIVERSITY OF MEDICINE AND SCIENCE, priority 2016, dated 2018).

Columns and labels:
[1] = system: Aedes albopictus clone C6/36 (ATCC CRL-1660); assay: Uptake of PS by mosquito cells in vitro and photo-inactivation; conditions: exposed overnight in the dark
Description: The insect cells were exposed to both dyes overnight and illuminated with white light under conditions similar to those described for mammalian and Leishmania cells. Images were captured first under differential interference (DIF) [A] and then under the filter sets for DAPI and Texas red [B]. [C] Chemical structure of cyanosione and rose Bengal.
Uptake of PS was assessed in insect cells, specifically Aedes albopictus clone C6/36 (ATCC CRL-1660). The insect cells were exposed to both dyes overnight and illuminated with white light under conditions similar to those described for mammalian and Leishmania cells. […] Images were captured first under differential interference (DIF) [A] and then under the filter sets for DAPI and Texas red [B]. [C] Chemical structure of cyanosione and rose Bengal.

[2] = system: Phlebotomus duboscqi female and male adult flies; assay: Uptake by adult sand flies fed dye + sucrose solution; format: in vivo; conditions: 5% sucrose solution and 500 μL of 5 mg/mL dye in cotton ball, ~20 hrs in the dark

`O=C([O-])c1c(Cl)c(Cl)c(Cl)c(Cl)c1-c1c2cc(I)c(=O)c(I)c-2oc2c(I)c([O-])c(I)cc12.[Na+].[Na+]` [Rose Bengal] was tested, and the “dye uptake by cells (fluorescence)” value [1] was “cytoplasmic fluorescence” and the “uptake of dye by sand flies” value [2] was “taken up by the flies of both sexes”.
